Series [1] concerns the target T1, T5 exonuclease (UniProt P06229).
T1 sequence (looked up, limits assumed): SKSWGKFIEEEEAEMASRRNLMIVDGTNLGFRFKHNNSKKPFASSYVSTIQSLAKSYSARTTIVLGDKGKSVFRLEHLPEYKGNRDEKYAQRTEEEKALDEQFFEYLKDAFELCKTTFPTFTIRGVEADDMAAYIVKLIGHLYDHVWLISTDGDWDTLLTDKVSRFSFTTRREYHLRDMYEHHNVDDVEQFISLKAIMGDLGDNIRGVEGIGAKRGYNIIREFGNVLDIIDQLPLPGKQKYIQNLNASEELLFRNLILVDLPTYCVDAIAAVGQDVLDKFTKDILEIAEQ
Kind of series: enzyme reaction in vitro. To be noted: purified recombinant protein, protein details: NEB, label: fluorescein/dabcyl.

In series [2] the test system is DNA gyrase (Escherichia coli). Kind of series: activity assay. To be noted: dabcyl-dT at position 29 and fluorescein-dT at position 55 of the FL905 insert; supercoiling of relaxed plasmid with ATP, monitored by FRET, relatively slow; inhibited by novobiocin (IC50 0.48 uM) and ciprofloxacin (IC50 […]); 4 mM MgCl2, 37 C; purified recombinant protein; protein details: New England Biolabs; label: fluorescein/dabcyl.

The target in series [3] is T2, DNA topoisomerase I (Escherichia coli) (UniProt P06612).
T2 sequence (looked up, limits assumed): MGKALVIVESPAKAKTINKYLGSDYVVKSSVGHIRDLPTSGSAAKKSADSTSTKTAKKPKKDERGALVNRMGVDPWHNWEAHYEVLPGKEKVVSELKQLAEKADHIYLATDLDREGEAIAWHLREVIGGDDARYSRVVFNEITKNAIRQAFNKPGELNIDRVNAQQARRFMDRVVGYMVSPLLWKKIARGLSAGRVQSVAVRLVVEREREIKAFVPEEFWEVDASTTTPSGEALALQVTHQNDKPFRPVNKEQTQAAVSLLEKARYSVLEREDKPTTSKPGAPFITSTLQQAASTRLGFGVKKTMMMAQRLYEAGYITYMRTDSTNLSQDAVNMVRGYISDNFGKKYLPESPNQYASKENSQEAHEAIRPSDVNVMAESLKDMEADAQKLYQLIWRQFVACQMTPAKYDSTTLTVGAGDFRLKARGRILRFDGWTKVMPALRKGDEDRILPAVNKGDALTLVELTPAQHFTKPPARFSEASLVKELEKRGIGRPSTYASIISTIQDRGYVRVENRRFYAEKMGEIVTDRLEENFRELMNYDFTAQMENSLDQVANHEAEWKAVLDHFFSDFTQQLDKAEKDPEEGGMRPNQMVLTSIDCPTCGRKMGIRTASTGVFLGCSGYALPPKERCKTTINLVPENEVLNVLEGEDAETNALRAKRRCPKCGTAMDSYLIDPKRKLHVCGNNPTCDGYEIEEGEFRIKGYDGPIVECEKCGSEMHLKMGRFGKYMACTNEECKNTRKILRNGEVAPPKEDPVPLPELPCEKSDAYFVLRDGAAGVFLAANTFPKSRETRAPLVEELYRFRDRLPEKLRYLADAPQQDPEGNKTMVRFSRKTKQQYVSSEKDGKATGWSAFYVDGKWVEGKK
Kind of series: activity assay. Conditions: dabcyl-dT at position 29 and fluorescein-dT at position 55 of the FL905 insert; rapid relaxation of supercoiled plasmid by large amounts of enzyme, FRET kinetics; purified recombinant protein; protein details: purified as described previously; label: fluorescein/dabcyl; variant of relaxed pAB1_FL905 plasmid.

For some assays here: Negatives hold for the conditions tested. For some assays here: Protein sequences can lack the tags named with them. For some assays here: For at least one entry, the source does not settle the construct or the ends of the probe.

The source of these data is patent publication US20180135112.

With “TCAGCCCGACAGCACGAGACGATATATATATATATATATATATATATATATATATATATATATGGGCCAACCAACCAGCCCC [FL905 single-stranded oligomer]”, the “activity on this sequence” value in series [1] (dabcyl-dT at position 29 and fluorescein-dT at position 55, 5'-phosphorylated, digests ss FL905, single-stranded DNA) was “active”. “TCAGCCCGACAGCACGAGACGATATATATATATATATATATATATATATATATATATATATATGGGCCAACCAACCAGCCCC [relaxed pAB1_FL905 plasmid]”: the “activity on this sequence” value in series [2] is given as “active”; in series [1] (dabcyl-dT at position 29 and fluorescein-dT at position 55 of the FL905 insert, does not degrade relaxed closed circular plasmid), “not active”. “TCAGCCCGACAGCACGAGACGATATATATATATATATATATATATATATATATATATATATATGGGCCAACCAACCAGCCCC [supercoiled pAB1_FL905 plasmid]”: the “activity on this sequence” value in series [3] is “active”; in series [1] (dabcyl-dT at position 29 and fluorescein-dT at position 55 of the FL905 insert, does not degrade supercoiled plasmid, variant of relaxed pAB1_FL905 plasmid) it was “not active”.
